Measured values: the supplement of paper PMC10849652
Some of the results follow.

Chains of the proteins cited; added tags and fusions are not shown. Lines headed by an entry give the natural chain unless they say otherwise; changes in a name come on top.
UniProt P49754: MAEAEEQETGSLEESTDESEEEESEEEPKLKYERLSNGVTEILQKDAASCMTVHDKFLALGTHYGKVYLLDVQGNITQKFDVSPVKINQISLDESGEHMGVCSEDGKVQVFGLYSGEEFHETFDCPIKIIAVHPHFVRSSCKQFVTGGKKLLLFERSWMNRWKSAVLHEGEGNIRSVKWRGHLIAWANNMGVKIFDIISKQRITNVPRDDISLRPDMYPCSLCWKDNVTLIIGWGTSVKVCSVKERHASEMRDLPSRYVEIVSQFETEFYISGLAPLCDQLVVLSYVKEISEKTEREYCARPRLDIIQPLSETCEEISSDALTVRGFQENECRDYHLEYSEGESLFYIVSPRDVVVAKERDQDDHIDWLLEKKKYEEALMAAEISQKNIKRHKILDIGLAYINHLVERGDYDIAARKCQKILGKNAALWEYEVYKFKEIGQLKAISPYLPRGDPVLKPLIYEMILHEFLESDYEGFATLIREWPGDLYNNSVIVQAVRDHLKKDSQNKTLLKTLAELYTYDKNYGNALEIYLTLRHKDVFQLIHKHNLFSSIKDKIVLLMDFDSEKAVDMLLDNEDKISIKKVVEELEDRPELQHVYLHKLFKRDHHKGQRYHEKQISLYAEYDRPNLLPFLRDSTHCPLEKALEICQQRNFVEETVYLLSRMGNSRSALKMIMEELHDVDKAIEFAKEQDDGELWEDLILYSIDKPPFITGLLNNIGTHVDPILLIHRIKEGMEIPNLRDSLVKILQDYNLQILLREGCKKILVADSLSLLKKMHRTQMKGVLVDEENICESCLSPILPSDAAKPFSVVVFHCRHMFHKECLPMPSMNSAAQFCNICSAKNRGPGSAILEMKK
UniProt Q9HBM0: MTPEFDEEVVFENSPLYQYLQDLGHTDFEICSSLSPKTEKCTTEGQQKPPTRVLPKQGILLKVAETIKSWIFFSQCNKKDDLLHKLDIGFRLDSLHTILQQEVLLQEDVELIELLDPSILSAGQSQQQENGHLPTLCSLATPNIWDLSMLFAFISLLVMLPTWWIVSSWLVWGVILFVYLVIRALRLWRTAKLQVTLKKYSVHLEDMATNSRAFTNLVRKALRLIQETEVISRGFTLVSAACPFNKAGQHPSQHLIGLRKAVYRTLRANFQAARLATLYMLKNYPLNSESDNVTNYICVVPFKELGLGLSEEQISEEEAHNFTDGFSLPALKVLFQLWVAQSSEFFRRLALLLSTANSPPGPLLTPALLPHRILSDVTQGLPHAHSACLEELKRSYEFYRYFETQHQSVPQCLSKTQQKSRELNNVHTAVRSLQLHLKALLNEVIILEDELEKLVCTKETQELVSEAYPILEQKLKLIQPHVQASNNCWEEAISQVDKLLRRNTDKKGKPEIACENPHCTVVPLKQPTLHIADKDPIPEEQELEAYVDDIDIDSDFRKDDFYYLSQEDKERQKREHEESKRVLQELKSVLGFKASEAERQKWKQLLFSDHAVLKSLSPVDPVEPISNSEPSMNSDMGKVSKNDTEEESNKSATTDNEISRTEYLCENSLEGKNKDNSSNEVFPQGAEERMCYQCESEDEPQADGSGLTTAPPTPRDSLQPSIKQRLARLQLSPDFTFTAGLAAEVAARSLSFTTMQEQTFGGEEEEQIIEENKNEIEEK
UniProt Q86VN1: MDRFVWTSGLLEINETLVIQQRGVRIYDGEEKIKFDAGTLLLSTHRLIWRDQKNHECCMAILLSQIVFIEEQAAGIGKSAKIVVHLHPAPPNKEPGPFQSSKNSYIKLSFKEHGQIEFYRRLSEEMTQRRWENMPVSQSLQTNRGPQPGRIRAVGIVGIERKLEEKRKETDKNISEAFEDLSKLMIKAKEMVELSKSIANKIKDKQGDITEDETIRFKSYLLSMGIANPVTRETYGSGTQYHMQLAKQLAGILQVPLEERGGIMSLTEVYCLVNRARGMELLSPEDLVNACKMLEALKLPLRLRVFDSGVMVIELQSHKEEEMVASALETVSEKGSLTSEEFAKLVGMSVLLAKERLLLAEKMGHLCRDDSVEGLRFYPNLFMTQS
UniProt Q92558: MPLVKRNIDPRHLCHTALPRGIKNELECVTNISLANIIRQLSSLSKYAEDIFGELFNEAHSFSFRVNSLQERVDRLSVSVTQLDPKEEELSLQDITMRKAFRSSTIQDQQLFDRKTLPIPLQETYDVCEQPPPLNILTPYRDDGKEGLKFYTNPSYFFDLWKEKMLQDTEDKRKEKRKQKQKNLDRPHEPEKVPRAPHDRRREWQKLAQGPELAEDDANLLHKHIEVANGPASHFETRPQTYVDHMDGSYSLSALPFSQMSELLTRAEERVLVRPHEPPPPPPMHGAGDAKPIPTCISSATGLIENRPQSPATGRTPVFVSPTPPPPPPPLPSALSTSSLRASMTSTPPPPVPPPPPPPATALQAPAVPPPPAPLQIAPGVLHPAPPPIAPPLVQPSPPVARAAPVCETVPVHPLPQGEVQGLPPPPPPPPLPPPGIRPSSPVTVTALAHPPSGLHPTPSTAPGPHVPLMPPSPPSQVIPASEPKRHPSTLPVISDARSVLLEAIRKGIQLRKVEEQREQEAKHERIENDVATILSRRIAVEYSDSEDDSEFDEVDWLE
UniProt Q8IV63: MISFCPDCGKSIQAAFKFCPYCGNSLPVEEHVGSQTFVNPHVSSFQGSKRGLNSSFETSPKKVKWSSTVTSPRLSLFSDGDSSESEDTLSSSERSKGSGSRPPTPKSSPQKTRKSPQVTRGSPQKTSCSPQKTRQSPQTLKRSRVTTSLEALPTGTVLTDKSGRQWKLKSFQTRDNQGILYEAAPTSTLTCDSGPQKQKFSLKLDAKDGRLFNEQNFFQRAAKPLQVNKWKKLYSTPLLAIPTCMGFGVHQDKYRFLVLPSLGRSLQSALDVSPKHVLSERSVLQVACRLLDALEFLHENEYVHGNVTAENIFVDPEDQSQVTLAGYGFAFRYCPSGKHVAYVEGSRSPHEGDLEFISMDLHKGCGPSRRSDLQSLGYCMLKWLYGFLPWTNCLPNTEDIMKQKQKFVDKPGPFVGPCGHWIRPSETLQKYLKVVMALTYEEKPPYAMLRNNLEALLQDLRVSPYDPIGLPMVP
UniProt Q6PJI9: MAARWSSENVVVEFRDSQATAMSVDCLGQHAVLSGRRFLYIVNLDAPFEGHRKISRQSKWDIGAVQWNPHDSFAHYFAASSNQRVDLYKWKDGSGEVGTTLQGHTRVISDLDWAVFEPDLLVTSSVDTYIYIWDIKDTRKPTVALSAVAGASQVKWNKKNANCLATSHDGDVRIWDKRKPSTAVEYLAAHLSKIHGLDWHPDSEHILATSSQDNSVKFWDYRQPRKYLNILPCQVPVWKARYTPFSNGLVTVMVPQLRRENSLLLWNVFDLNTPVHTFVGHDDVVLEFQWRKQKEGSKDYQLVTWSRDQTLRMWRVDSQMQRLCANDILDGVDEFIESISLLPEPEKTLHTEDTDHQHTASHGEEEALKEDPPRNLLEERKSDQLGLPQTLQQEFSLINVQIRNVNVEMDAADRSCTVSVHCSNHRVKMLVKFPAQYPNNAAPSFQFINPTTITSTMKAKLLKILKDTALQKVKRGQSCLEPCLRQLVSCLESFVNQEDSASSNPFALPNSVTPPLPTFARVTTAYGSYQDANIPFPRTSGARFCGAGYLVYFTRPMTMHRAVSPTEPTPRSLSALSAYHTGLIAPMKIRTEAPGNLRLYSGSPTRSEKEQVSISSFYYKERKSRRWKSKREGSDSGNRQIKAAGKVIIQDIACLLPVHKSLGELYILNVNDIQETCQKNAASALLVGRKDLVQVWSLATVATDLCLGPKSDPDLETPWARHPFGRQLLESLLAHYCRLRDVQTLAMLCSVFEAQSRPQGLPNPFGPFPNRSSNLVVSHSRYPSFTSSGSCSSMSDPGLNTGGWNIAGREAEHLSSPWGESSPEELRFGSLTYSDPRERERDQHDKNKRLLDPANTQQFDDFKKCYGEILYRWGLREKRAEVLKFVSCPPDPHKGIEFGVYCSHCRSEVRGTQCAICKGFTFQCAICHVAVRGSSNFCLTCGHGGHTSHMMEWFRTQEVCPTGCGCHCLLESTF
UniProt Q9BQA1, whole entry, looked up: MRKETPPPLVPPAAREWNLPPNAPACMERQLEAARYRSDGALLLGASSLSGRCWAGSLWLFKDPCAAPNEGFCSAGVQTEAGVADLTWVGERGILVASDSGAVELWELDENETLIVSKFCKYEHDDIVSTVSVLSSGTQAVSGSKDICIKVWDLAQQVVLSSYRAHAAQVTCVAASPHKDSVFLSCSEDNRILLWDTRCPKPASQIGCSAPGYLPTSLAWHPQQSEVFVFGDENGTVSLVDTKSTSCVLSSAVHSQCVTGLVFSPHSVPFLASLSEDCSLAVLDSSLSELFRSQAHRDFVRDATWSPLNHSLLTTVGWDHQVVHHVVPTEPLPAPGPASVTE
UniProt Q6RFH5: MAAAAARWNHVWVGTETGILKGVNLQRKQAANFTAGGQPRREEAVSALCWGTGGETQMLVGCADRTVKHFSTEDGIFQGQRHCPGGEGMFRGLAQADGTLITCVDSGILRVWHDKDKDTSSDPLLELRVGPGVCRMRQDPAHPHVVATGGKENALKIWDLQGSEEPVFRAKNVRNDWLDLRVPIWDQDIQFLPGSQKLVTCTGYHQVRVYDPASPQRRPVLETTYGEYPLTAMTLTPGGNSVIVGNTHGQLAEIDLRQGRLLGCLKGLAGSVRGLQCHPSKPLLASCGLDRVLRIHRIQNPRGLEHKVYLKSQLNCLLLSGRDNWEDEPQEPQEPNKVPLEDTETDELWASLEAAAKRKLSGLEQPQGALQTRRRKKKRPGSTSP
UniProt Q9NNW5: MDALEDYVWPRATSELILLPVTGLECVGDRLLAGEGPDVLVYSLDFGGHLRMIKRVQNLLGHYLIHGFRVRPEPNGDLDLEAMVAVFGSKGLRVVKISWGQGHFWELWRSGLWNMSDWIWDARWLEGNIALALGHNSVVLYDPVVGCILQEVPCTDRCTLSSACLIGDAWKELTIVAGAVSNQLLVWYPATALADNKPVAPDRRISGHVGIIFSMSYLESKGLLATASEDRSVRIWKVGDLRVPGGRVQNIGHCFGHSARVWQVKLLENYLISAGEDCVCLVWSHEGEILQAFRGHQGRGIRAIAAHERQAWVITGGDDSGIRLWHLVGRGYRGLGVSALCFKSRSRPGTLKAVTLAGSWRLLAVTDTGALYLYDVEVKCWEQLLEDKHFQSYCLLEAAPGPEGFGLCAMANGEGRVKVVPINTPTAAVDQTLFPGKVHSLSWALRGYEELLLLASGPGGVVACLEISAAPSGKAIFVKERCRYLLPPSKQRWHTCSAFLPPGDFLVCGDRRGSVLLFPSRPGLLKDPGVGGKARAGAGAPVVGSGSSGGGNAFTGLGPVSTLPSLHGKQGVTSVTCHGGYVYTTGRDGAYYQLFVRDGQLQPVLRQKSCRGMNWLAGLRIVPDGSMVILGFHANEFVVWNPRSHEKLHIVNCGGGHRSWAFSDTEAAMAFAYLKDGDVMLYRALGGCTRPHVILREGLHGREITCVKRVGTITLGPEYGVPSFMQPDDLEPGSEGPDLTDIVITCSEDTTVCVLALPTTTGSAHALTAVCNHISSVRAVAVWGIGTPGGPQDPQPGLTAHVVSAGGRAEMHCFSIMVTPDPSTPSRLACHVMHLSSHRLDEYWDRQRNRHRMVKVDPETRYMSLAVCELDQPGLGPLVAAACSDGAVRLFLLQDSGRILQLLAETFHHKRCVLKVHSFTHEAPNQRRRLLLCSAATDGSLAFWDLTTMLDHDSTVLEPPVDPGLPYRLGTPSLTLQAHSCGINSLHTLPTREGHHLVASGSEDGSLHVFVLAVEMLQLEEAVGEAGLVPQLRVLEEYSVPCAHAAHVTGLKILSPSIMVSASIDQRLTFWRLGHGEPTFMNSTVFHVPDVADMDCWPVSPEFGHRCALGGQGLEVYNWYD
UniProt P08670, whole entry, looked up: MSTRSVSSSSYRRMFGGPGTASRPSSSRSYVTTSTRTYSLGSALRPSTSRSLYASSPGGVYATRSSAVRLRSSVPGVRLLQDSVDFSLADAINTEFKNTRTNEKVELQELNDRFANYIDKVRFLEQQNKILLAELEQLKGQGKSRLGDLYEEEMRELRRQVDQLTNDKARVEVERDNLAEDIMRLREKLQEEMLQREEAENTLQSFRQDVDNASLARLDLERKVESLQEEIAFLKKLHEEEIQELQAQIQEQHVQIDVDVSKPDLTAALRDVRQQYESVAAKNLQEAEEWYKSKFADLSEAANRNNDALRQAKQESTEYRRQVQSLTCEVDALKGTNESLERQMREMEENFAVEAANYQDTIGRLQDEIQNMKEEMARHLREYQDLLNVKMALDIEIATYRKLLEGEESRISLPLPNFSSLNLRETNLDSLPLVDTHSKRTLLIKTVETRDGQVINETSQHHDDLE

The targets below were run with CC1=C(C2=C(C=C1)C(=O)C3=CC=CC=C3N2CCCN)C (assay: log2 fold change, soluble protein after heating vs DMSO (PISA); higher = thermal stabilisation; K562 cells, 10 uM, 30 min; active = over 0.2 and 3.5 SD of the protein, either way, in both replicates (recomputed)).
Method in brief: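 Aliquots of K562 cells (2×10^6 cells/mL) treated with 10 μM compound for 30 min were heated for 3 min over 48°C-58°C. After pooling and extraction in PBS with 0.5% NP-40 at 4°C, soluble protein from a 21,000xg, 90 min spin was quantified by TMTpro 16plex LC-MS/MS with channel sums equalised. Thermal stability is expressed against control samples, from duplicates, as a log2 fold change.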

Target	log2 fold change
WDR45B (UniProt Q5MNZ6)	inactive: 0.044
VWA5A (UniProt O00534)	inactive: -0.085
VPS26B (UniProt Q4G0F5)	inactive: 0
VPS41 (UniProt P49754)	inactive: 0.063
WRAP53 (UniProt Q9BUR4)	inactive: -0.012
WDR36 (UniProt Q8NI36)	inactive: 0.189
WIPF2 (UniProt Q8TF74)	inactive: -0.055
WDR44 (UniProt Q5JSH3)	inactive: 0.015
VEZT (UniProt Q9HBM0)	inactive: -0.095
VPS36 (UniProt Q86VN1)	inactive: 0.056
WASF1 (UniProt Q92558)	inactive: 0.034
VPS37B (UniProt Q9H9H4)	inactive: 0.082
VRK3 (UniProt Q8IV63)	inactive: -0.059
WDR59 (UniProt Q6PJI9)	inactive: 0
WDR77 (UniProt Q9BQA1)	inactive: 0.091
WIZ (UniProt O95785)	inactive: 0.044
WDR12 (UniProt Q9GZL7)	inactive: -0.064

Target	log2 fold change
VPS45 (UniProt Q9NRW7)	inactive: 0.062
WDR3 (UniProt Q9UNX4)	inactive: -0.165
VPS13A (UniProt Q96RL7)	inactive: 0.037
WDR74 (UniProt Q6RFH5)	inactive: 0.027
WDR6 (UniProt Q9NNW5)	inactive: -0.023
VIM (UniProt P08670)	inactive: -0.257
WDFY1 (UniProt Q8IWB7)	inactive: -0.015
WDR92 (UniProt Q96MX6)	inactive: 0.032
WDR26, A0A499FIZ0	inactive: -0.111
WDR73 (UniProt Q6P4I2)	inactive: 0.028
VKORC1L1, A0A3B3ISV4	inactive: 0.052
VMP1 (UniProt Q96GC9)	inactive: -0.015
VPS29 isoform 2 (UniProt Q9UBQ0)	inactive: -0.023
WDR5 (UniProt P61964)	inactive: -0.013
WDR45 (UniProt Q9Y484)	inactive: 0.051
WRNIP1 (UniProt Q96S55)	inactive: -0.142
WARS (UniProt P23381)	inactive: 0.022

Looked up above:
VPS37B (UniProt Q9H9H4) | log2 fold change: inactive: 0.082
VRK3 (UniProt Q8IV63) | log2 fold change: inactive: -0.059
